Values of other authors as cited in PMC7697888, “Comprehensive Set of Tertiary Complex Structures and Palmitic Acid Binding Provide Molecular Insights into Ligand Design for RXR Isoforms” (International Journal of Molecular Sciences, 2020).

Parameters: method as in PMID 25675440
Conditions: young healthy Canadian adults; cited from earlier work

**Q.** Which “maximum plasma concentration (endogenous)” value (“maximum plasma concentration” for short) does the source give for CCCCCCCCCCCCCC(=O)O [MA, myristic acid] here?
**A.** The value was no more than 0.3 mM.

**Q.** Which “maximum plasma concentration” value does the source give for CCCCCCCCCCCCCCCC(=O)O [PA, palmitic acid] here?
**A.** Its value is 4.0 mM.

**Q.** Which “maximum plasma concentration” value does the source give for CCCCCCCCCCCCCCCCCC(=O)O [SA, stearic acid] here?
**A.** Its value is “up to 1.0 mM”.

**Q.** With CCCCC/C=C\C/C=C\C/C=C\C/C=C\CCCC(=O)O [arachidonic acid, reference compound] as the molecule, how does the “maximum plasma concentration” value read?
**A.** The value was 0.8 mM.

**Q.** For CC/C=C\C/C=C\C/C=C\C/C=C\C/C=C\C/C=C\CCC(=O)O [docosahexaenoic acid, reference compound], which “maximum plasma concentration” value is on record?
**A.** The value was 0.2 mM.
